Test results: patent US20140194358A1
Results are given in words; binding and its absence hold for the method and conditions named. Some entries that bind do so weakly or less than the wild type.

Sequences of proteins named here, by UniProt entry; tags and fusion partners are left off. A change or cut given only in a name is not applied to a line headed by its entry. A line that says so, or that is headed by a name, gives the form on record, which may keep a tag or linker.
hVEGF (P15692, form named): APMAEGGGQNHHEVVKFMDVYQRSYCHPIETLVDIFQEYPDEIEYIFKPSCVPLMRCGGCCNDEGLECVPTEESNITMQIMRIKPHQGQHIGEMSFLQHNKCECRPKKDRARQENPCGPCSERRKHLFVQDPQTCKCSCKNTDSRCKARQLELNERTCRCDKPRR

Assays:
hVEGF (human) [1] = target: hVEGF (human) (UniProt P15692); experiment: peptide spot array with hVEGF (FIG. 2B)
hVEGF (human) [2] = target: hVEGF (human) (UniProt P15692); experiment: ELISA and dot blot with synthesized peptide
hVEGF (human) [3] = target: hVEGF (human) (UniProt P15692); experiment: VEGF binding: peptide spot array with hVEGF, confirmed by ELISA and dot blot

| Binder | binding (hVEGF (human) [1]) | binding (hVEGF (human) [2]) | binding (hVEGF (human) [3]) |
| --- | --- | --- | --- |
| LCGVCGYDRHAT [prominin-1 peptide #77 (…)] | binds | binds | binds |
| LCGNSFSGGQPS [prominin-1 peptide #3 (…)] | binds | binds | binds |
| PNIIPVLDEIKS [prominin-1 peptide #42 (…)] | binds | binds | binds |

The remaining lines, values ahead:

| binding (hVEGF (human) [1]) | binding (hVEGF (human) [2]) | binding (hVEGF (human) [3]) | Binder |
| --- | --- | --- | --- |
| binds | binds | binds | CSFAYDLEAKANSLPPGNLRN [prominin-1 peptide #640 (…)] |
| binds | binds | binds | DRVQRQTTTVVA [prominin-1 peptide #237 (…)] |
| binds | binds | binds | ITNNTSSVIIEE [prominin-1 peptide #122 (…)] |
